{
  "source": "PubChem BioAssay AID624297",
  "about": "(National Center for Advancing Translational Sciences (NCATS), 2012)",
  "note": "Out of some 340,000 compounds screened, about 6,200 (1.8%) were called active. This list was built around the results that the source calls inconclusive (neither active nor inactive); the mix of calls is not that of the screen. Calls come from the whole dose curve; as a rule, active = well fitted activation curve with a large enough effect; inconclusive = small, poorly fitted or top-dose-only effect; inactive = no such curve, though single readings can be large or run the other way. Where the call is inconclusive, the potency comes from a doubtful curve fit. Potency is the fitted concentration of half-maximal effect.",
  "data": [
    {"assay": "A quantitative high throughput screen for small molecules that induce DNA re-replication in SW480 colon adenocarcinoma cells; note: nearly all actives have a fitted effect of over 55% in size; for re-replication activation: % of control where 0% means no effect.", "conditions": "Hoechst DNA content imaging, 48 h; re-replication activation: at 46.1 µM (top of the series) unless noted", "summary_of_the_method": "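Hoechst fluorescence of nuclei (405 nm excitation, 500-530 nm emission) measured by plate-scanning imager after 48 hr compound exposure at 37 C; re-replication scored as increased number of nuclei with elevated intensity.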", "values": [
      {"smiles": "Cc1cccc(/C=N/NC(=O)c2c(-c3ccccc3)noc2C)c1O", "Potency": "inconclusive: 3.66 µM [activator, single point]"},
      {"smiles": "CCOC(=O)C(Cc1ccnnc1)=NO", "Potency": "inconclusive: 29.1 µM [activator, single point]"},
      {"smiles": "c1ccc(CCC2Cc3ccccc3N2)cc1", "note": "(stereo not given)", "Potency": "inconclusive: 18.4 µM [activator, single point]"},
      {"smiles": "O=C(O)CSCCOc1ccc(OCCSCC(=O)O)cc1", "Potency": "inconclusive: 6.51 µM [activator, single point]"},
      {"smiles": "COc1ccc(NC(=O)CN2CCC(NC(=O)C3CCCCC3)CC2)c([N+](=O)[O-])c1", "Potency": "inconclusive: 16.4 µM [activator, single point]"},
      {"smiles": "C=CCN(CC=C)CCCOc1ccc(C)cc1OC", "Potency": "inconclusive: 3.66 µM [activator, full curve, poor fit]"},
      {"smiles": "COc1cccc(CNC(=O)c2cc(=O)[nH]c3ccc(S(=O)(=O)N4CCOCC4)cc23)c1", "re-replication activation": "inactive: -6.82%"},
      {"smiles": "COc1cc(/C=N/N2CCCCC2)cc([N+](=O)[O-])c1O", "re-replication activation": "inactive: -0.355%"},
      {"smiles": "CCCc1ccc(Oc2cn[nH]c2-c2ccc(O)cc2O)cc1", "Potency": "inconclusive: 20.6 µM [activator, single point]"},
      {"smiles": "CCC1=NN(C(=O)COc2ccccc2)C(O)(c2ccncc2)C1", "note": "(stereo not given)", "Potency": "active: 6.51 µM"},
      {"smiles": "CC12CN3CCN(CC(C3)/C1=N/N=C/c1cccc([N+](=O)[O-])c1)C2", "Potency": "inconclusive: 2.31 µM [activator, single point]"},
      {"smiles": "CCCCNC(=O)Cc1ccc(Br)cc1", "re-replication activation": "inactive: 9.71%"},
      {"smiles": "O=C(CSc1n[nH]c(=O)n1C1CC1)Nc1ccccc1", "re-replication activation": "inactive: 2.83%"},
      {"smiles": "CCCCn1c(SCc2nc(N)nc(N3CCCCC3)n2)nc2c1c(=O)n(C)c(=O)n2C", "Potency": "inconclusive: 0.164 µM [activator, full curve, poor fit]"},
      {"smiles": "CCn1cc(S(=O)(=O)CC(=O)Nc2cc(C)on2)c2ccccc21", "Potency": "inconclusive: 32.6 µM [activator, partial curve, poor fit]"},
      {"smiles": "Cc1cc(C(c2nnnn2Cc2ccccc2)N2CCOCC2)c(C)n1-c1ccc2c(c1)OCO2", "note": "(stereo not given)", "re-replication activation": "inactive: -3.95%"},
      {"smiles": "CC(C)(C)Nc1nc(Oc2ccc(=O)n(-c3ccccc3)n2)nc(N2CCOCC2)n1", "re-replication activation": "inactive: 1.88%"},
      {"smiles": "Cc1cccc(COc2ccccc2/C=N/Nc2ccc([N+](=O)[O-])cc2)c1", "Potency": "inconclusive: 16.4 µM [activator, single point]"},
      {"smiles": "CN(C)c1ccc(C(=O)N(Cc2ccccc2)Cc2ccccc2)cc1", "re-replication activation": "inactive: -19.4%"},
      {"smiles": "Cc1cc(C)cc(NC(=O)CCC(=O)N2CCSc3ccccc32)c1", "Potency": "inconclusive: 29.1 µM [activator, partial curve, poor fit]"},
      {"smiles": "CCCCN(CC)C(=O)c1cc2c(=O)n3cccc(C)c3nc2s1", "Potency": "inconclusive: 18.4 µM [activator, single point]"},
      {"smiles": "COc1ccc(-n2ncc3c(=O)n(CC(=O)N(C(C)C)C(C)C)cnc32)cc1", "re-replication activation": "inactive: 16.2%"},
      {"smiles": "Cc1ccc(-n2nc(C)c(Sc3ccccc3[N+](=O)[O-])c2N)cc1", "Potency": "inconclusive: 18.4 µM [activator, single point]"},
      {"smiles": "CCCN(Cc1nnc(-c2cccs2)o1)C(=O)c1cccc(S(=O)(=O)N2CCOCC2)c1", "re-replication activation": "inactive: -3.75%"},
      {"smiles": "CC(C)C[C@H]1CN=C(Nc2ccccc2)N1CCc1cccc(F)c1", "Potency": "inconclusive: 23.1 µM [activator, single point]"},
      {"smiles": "CCOC(=O)c1c(N)sn(-c2ccccc2)c1=S", "re-replication activation": "inactive: -2.05%"},
      {"smiles": "Cc1ccc(NC(=O)CSc2n[nH]c(-c3cccnc3)n2)cc1Cl", "re-replication activation": "inactive: -5.56%"},
      {"smiles": "CCOc1ncccc1C(=O)NCc1ccc(OC)cc1", "Potency": "active: 8.2 µM"},
      {"smiles": "O=C(Nc1ccc(-c2nc3cc(NC(=O)c4cccs4)ccc3o2)cc1)c1cccs1", "Potency": "inconclusive: 3.55 µM [activator, full curve, poor fit]"},
      {"smiles": "COc1cccc(/C=C/C(=C2/C(=O)N(c3ccccc3)N=C2C)c2ccccc2)c1OC", "re-replication activation": "inactive: -3.22%"},
      {"smiles": "CCC(C)NC(=O)CN1C(=O)COc2ccc(S(=O)(=O)N3CCOCC3)cc21", "note": "(stereo not given)", "Potency": "inconclusive: 0.164 µM [activator, full curve, poor fit]"},
      {"smiles": "Cc1nc(NCCN2CCOCC2)c2nnn(Cc3ccccc3Cl)c2n1", "re-replication activation": "inactive: 2.23%"},
      {"smiles": "O=C(O)c1cc(S(=O)(=O)N(Cc2ccccc2)c2ccc(Cl)cc2)ccc1Cl", "Potency": "inconclusive: 20.6 µM [activator, single point]"},
      {"smiles": "Cc1cc(N2C(=O)C(O)=C(C(=O)c3ccc(C)o3)C2c2ccc(OCc3ccccc3)cc2)no1", "note": "(stereo not given)", "Potency": "inconclusive: 29.1 µM [activator, single point]"},
      {"smiles": "O=[N+]([O-])c1cccc(-c2ccc(/C=N/Nc3nc(N4CCCCC4)nc(N4CCCCC4)n3)o2)c1", "re-replication activation": "inactive: 1.77%"},
      {"smiles": "CC(C)NC(=O)c1ccc(COc2ccc(C(C)(C)C)cc2)o1", "Potency": "inconclusive: 29.1 µM [activator, single point]"},
      {"smiles": "CC1Cc2ccccc2N1C(=O)CSc1ncc(-c2ccc(F)cc2)n1C", "note": "(stereo not given)", "re-replication activation": "inactive: 4.56%"},
      {"smiles": "Cc1cc(OCC(=O)NC2CCN(Cc3ccccc3)CC2)c2c(C)c(C)c(=O)oc2c1", "re-replication activation": "inactive: -5.47%"},
      {"smiles": "O=C(CCNC(=O)Cn1ccc2ccccc2c1=O)NCCCN1CCOCC1", "Potency": "inconclusive: 11.6 µM [activator, partial curve, poor fit]"},
      {"smiles": "O=C(O)C[C@@H](CNC(=O)COc1ccc2ccc(=O)oc2c1)c1ccc(Cl)cc1", "Potency": "inconclusive: 32.6 µM [activator, single point]"},
      {"smiles": "O=C(Nc1ccc(Cl)cc1)N1CCC(c2ccccc2)C1", "note": "(stereo not given)", "Potency": "inconclusive: 16.4 µM [activator, partial curve, poor fit]"},
      {"smiles": "CCOc1ccc2[nH]c(=O)c(CN(Cc3cccs3)C(CC)c3nnnn3C(C)(C)CC)cc2c1", "note": "(stereo not given)", "Potency": "inconclusive: 20.6 µM [activator, single point]"},
      {"smiles": "COc1ccc(Oc2c(Cl)cnn(-c3ccccc3)c2=O)cc1", "Potency": "inconclusive: 23.1 µM [activator, single point]"},
      {"smiles": "CCN1CCc2c(sc(NC(=O)c3ccc(S(=O)(=O)N4CCOCC4)cc3)c2C(=O)OC)C1", "Potency": "inconclusive: 20.6 µM [activator, partial curve, poor fit]"},
      {"smiles": "CCCC[C@@H]1C=C(C(=O)O)[C@H](c2ccc(Cl)c(Cl)c2)N1S(=O)(=O)c1ccc(C)cc1", "Potency": "inconclusive: 3.66 µM [activator, partial curve, poor fit]"}
    ]}
  ]
}
